Laboratory results published in PMC7337969.
No constants are given. Whether binding was seen depends on the method and setting. For part of these data: Binding can be weak; no strength is given. For part of these data: Binding seen in cells or lysates may run through a third protein. For part of these data: Where a sequence is shown, tags or fusion partners need not be part of it.

T1: GFP-tagged full length MEIOK21 (mouse) (UniProt Q6DIA7)
T1 sequence: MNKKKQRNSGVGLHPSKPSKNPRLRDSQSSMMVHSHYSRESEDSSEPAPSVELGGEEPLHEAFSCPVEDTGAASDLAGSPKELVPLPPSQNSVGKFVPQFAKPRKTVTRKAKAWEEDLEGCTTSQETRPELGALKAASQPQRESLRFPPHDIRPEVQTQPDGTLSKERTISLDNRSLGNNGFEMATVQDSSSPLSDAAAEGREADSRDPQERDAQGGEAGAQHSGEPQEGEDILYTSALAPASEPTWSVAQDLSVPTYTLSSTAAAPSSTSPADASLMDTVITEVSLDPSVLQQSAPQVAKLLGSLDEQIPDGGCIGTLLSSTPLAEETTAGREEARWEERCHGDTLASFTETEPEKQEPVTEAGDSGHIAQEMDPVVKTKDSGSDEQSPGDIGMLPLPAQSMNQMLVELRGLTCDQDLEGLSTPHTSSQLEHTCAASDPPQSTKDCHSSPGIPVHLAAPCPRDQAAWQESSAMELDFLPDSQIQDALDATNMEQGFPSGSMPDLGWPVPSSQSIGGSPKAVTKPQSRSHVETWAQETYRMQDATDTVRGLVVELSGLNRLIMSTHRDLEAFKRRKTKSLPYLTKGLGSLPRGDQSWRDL

B1: MEIOK21 (meiosis-specific 4930432K21RIK), yeast two-hybrid prey (protein, UniProt Q6DIA7-1 1-600)
chain: T1 sequence

Assays:
[1] = molecular target: T1, GFP-tagged full length MEIOK21 (mouse); assay: co-IP; FLAG-tagged HSF2BP and GFP-tagged MEIOK21 (full length or truncations) co-transfected into HEK-293T cells, lysed after 48 hours, precipitated with GFP antibody; IgG as control
[2] = molecular target: HSF2BP C-terminal domain, yeast two-hybrid construct (mouse); assay: two-hybrid; MEIOK21 in pGADT7 as prey, partners in pGBKT7 as bait, co-transformed into Y2H gold strain; tested on SD-Leu-Trp-His plates
[3] = molecular target: HSF2BP N-terminal domain, yeast two-hybrid construct (mouse); assay: as above

Molecule | binding [1] | binding [2] | binding [3]
FLAG-tagged HSF2BP C-terminal domain (mouse) (domain or fragment) | no binding |  | 
B1 |  | no binding | binds
